Measurements reported in PubChem BioAssay AID1508597 (Cure First, 2020)
This is an unselected part of the about 2,100 reagents, under one of the conditions tested. 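Calls flag viability under 80% in either arm, not effects specific to rucaparib; the reference for percent is not stated.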 Entries without a mark were called inactive. Some reagents were tested in more than one well and are listed for each. The record does not give: the 100% reference.

Screen: 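Genes whose silencing sensitises or protects ovarian cancer cells against rucaparib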 (primary screen)
Cells: human ovarian carcinoma lines grown from tumours: OCI-P5x (papillary serous) and OCI-C5x (clear cell)
Reagent: siRNA pool against human genes, 1.25 pmol siRNA per well
Time to read-out: 72 h or 96 h, depending on the cell culture
Challenge: rucaparib 20 µM (about IC30) or vehicle, present until read-out
Rucaparib or vehicle: Vehicle
Cell line: OCI-C5x (clear cell)
Measured: 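Luminescent ATP-based viability assay read 72 or 96 h after transfection, depending on culture, given as normalised percent viability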
Direction: viability, normalised: higher = more viable cells remaining
Rule for the call: 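a well counts as a hit if its normalised viability is under 80 percent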
Calls: active = viability under 80%; inactive = viability 80% or more

What did the screen give for PDE4A, technical replicate 1?
viability, normalised (%): 40.3 (active)

With PDE4A, technical replicate 2, what does the deposit list?
viability, normalised (%): 50 (active)

How did the screen score PDE4A, technical replicate 3?
viability, normalised (%): 48.3 (active)

What did the screen give for SMARCA1, technical replicate 1?
viability, normalised (%): 26.2 (active)

With SMARCA1, technical replicate 2, what was measured?
viability, normalised (%): 45.7 (active)

With SMARCA1, technical replicate 3, how do the results read?
viability, normalised (%): 36.5 (active)

What is on record for PIAS2, technical replicate 1?
viability, normalised (%): 54.9 (active)

How did the screen score PIAS2, technical replicate 2?
viability, normalised (%): 41.6 (active)

For PIAS2, technical replicate 3, what does the deposit list?
viability, normalised (%): 73.2 (active)

Which result is listed for TBK1, technical replicate 1?
viability, normalised (%): 61.4 (active)

What is on record for TBK1, technical replicate 2?
viability, normalised (%): 57.1 (active)

With TBK1, technical replicate 3, how do the results read?
viability, normalised (%): 43.9 (active)

How did the screen score URI1, technical replicate 1?
viability, normalised (%): 68.6 (active)

Which result is listed for URI1, technical replicate 2?
viability, normalised (%): 70.7 (active)

With URI1, technical replicate 3, what does the deposit list?
viability, normalised (%): 66.7 (active)

How did the screen score SPEG, technical replicate 1?
viability, normalised (%): 44.2 (active)

How did the screen score SPEG, technical replicate 1?
viability, normalised (%): 60.7 (active)

For SPEG, technical replicate 2, how do the results read?
viability, normalised (%): 48.3 (active)

For SPEG, technical replicate 2, what does the deposit list?
viability, normalised (%): 57.5 (active)

What did the screen give for SPEG, technical replicate 3?
viability, normalised (%): 54.2 (active)

What did the screen give for SPEG, technical replicate 3?
viability, normalised (%): 40.8 (active)

How did the screen score DHX58, technical replicate 1?
viability, normalised (%): 56.3 (active)

Which result is listed for DHX58, technical replicate 2?
viability, normalised (%): 57 (active)

What is on record for DHX58, technical replicate 3?
viability, normalised (%): 54.2 (active)

For RAPGEF4, technical replicate 1, what does the deposit list?
viability, normalised (%): 44.2 (active)

How did the screen score RAPGEF4, technical replicate 2?
viability, normalised (%): 50.7 (active)

What is on record for RAPGEF4, technical replicate 3?
viability, normalised (%): 50.5 (active)

With FGF19, technical replicate 1, how do the results read?
viability, normalised (%): 52.2 (active)

What did the screen give for FGF19, technical replicate 2?
viability, normalised (%): 53.2 (active)

With FGF19, technical replicate 3, what does the deposit list?
viability, normalised (%): 48 (active)

With POLM, technical replicate 1, what does the deposit list?
viability, normalised (%): 47.5 (active)

With POLM, technical replicate 2, what was measured?
viability, normalised (%): 51.9 (active)

For POLM, technical replicate 3, what does the deposit list?
viability, normalised (%): 65.8 (active)

No new results follow: an excerpt of the list.
PDE4A, technical replicate 1 | viability, normalised (%): 40.3 (active)
PDE4A, technical replicate 2 | viability, normalised (%): 50 (active)
PDE4A, technical replicate 3 | viability, normalised (%): 48.3 (active)
SMARCA1, technical replicate 1 | viability, normalised (%): 26.2 (active)
SMARCA1, technical replicate 2 | viability, normalised (%): 45.7 (active)
